The list does not hold the whole screen: it is rich in T/C values a quarter to a half above the control, in often repeated tests (any T/C) and in doses without a T/C. Further doses and runs are listed elsewhere. T/C is the treated group as % of the vehicle group. Some doses have a count of surviving animals in place of a T/C: the source files T/C as zero there, which appears to mark a toxic dose or a test without result, not a measured value. Some survivor counts are full or nearly so, which does not show that the dose was tolerated: the source hardly ever lists a survival T/C far under the control, and the zero likely stands for such cases as well. Survivors were counted at the toxicity check, usually on the fifth day, unless a day is given; later deaths do not show. Schedules are NCI's codes, taken here to give the interval after Q, in days (D) or hours (H), and the number of doses after X. Some doses were run more than once; the values are given in rising order. Where survival is the endpoint, the PubChem record calls one and a half times the control and up active, and a quarter to a half above the control has no call in these data; cut-offs in other NCI protocols can differ. Some T/C values are followed by the survivors on the day toxicity was checked, most often the fifth; without a count, all were alive then.
System: Lewis lung carcinoma i.m., BDF1 mice, T/C %
Assay: NCI In Vivo Anticancer Drug Screen. Data for tumor model Lewis Lung Carcinoma (intramuscular) in B6D2F1 (BDF1) mice
Procedure, shortened: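 Antitumour activity is assessed in transplanted-tumour mice. Endpoint is survival or tumour size, normalised to vehicle-dosed controls (T/C).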

[1] = T/C endpoint: median survival time, dose: 50.0 mg/kg/injection, schedule: Q01DX011 (ip), vehicle: saline with Tween-80, higher T/C = longer survival
[2] = T/C endpoint: median survival time, dose: 400.0 mg/kg/injection, schedule: Q04DX003 (ip), vehicle: Klucel (hydroxypropylcellulose) (HPC), higher T/C = longer survival

CCCCCCCCCCCCCCCC(=O)N(C/C=C/CN(CCCN(C)C)C(=O)CCCCCCCCCCCCCCC)CCCN(C)C
survivor count (T/C endpoint: mean tumor weight (est.), dose: 25.0 mg/kg/injection, schedule: Q01DX011 (ip), vehicle: saline with Tween-80, higher T/C = larger tumour): 1 of 8
survivor count (T/C endpoint: median survival time, dose: 25.0 mg/kg/injection, schedule: Q01DX011 (ip), vehicle: saline with Tween-80, higher T/C = longer survival): 1 of 8
survivor count [1]: 0 of 8
survivor count (T/C endpoint: median survival time, dose: 100.0 mg/kg/injection, schedule: Q01DX011 (ip), vehicle: saline with Tween-80, higher T/C = longer survival): 0 of 8

O=C(O)c1[nH]c(=O)[nH]c(=O)c1F
survivor count (T/C endpoint: median survival time, dose: 5.0 mg/kg/injection, schedule: Q01DX011 (ip), vehicle: other, higher T/C = longer survival): 8 of 8
survivor count (T/C endpoint: median survival time, dose: 10.0 mg/kg/injection, schedule: Q01DX011 (ip), vehicle: other, higher T/C = longer survival): 0 of 8
survivor count (T/C endpoint: median survival time, dose: 20.0 mg/kg/injection, schedule: Q01DX011 (ip), vehicle: other, higher T/C = longer survival): 0 of 8
survivor count (T/C endpoint: median survival time, dose: 40.0 mg/kg/injection, schedule: Q01DX011 (ip), vehicle: other, higher T/C = longer survival): 0 of 8

Clc1ccc2nc(CBr)cnc2c1
survivor count (T/C endpoint: mean tumor weight (est.), dose: 50.0 mg/kg/injection, schedule: Q01DX011 (ip), vehicle: saline with Tween-80, higher T/C = larger tumour): 4 of 8
survivor count [1]: 4 of 8

O=c1n(CC2CO2)c(=O)n(CC2CO2)c(=O)n1CC1CO1 (stereo not drawn)
survivor count (T/C endpoint: median survival time, dose: 50.0 mg/kg/injection, schedule: Q01DX011 (ip), vehicle: saline, higher T/C = longer survival): 10 of 10

O=C1N[C@@H]([C@H]2CC[C@H](Cl)CN2)C(=O)N[C@H]1[C@H]1CC[C@H](Cl)CN1
survivor count (T/C endpoint: mean tumor weight, dose: 4.0 mg/kg/injection, schedule: Q01DX011 (ip), vehicle: saline, higher T/C = larger tumour): 1 of 8
survivor count (T/C endpoint: median survival time, dose: 4.0 mg/kg/injection, schedule: Q01DX011 (ip), vehicle: saline, higher T/C = longer survival): 0 of 8 and 1 of 8

CC(CN1CC(=O)NC(=O)C1)N1CC(=O)NC(=O)C1 (stereo not drawn)
survivor count (T/C endpoint: mean tumor weight, dose: 50.0 mg/kg/injection, schedule: Q01DX017 (ip), vehicle: Klucel (hydroxypropylcellulose) (HPC), higher T/C = larger tumour): 4 of 8
survivor count (T/C endpoint: mean tumor weight, dose: 100.0 mg/kg/injection, schedule: Q01DX009 (ip), vehicle: Klucel (hydroxypropylcellulose) (HPC), higher T/C = larger tumour): 2 of 8
survivor count (T/C endpoint: mean tumor weight, dose: 100.0 mg/kg/injection, schedule: Q01DX011 (ip), vehicle: steroid suspending solution, higher T/C = larger tumour): 2 of 8
survivor count (T/C endpoint: mean tumor weight, dose: 100.0 mg/kg/injection, schedule: Q01DX017 (ip), vehicle: Klucel (hydroxypropylcellulose) (HPC), higher T/C = larger tumour): 2 of 8
survivor count (T/C endpoint: mean tumor weight, dose: 400.0 mg/kg/injection, schedule: Q04DX003 (ip), vehicle: Klucel (hydroxypropylcellulose) (HPC), higher T/C = larger tumour): 2 of 5
T/C (T/C endpoint: median survival time, dose: 12.5 mg/kg/injection, schedule: Q01DX011 (ip), vehicle: steroid suspending solution, evaluated on day 39, higher T/C = longer survival): 140 % of control [7 of 8 alive]
T/C (T/C endpoint: median survival time, dose: 12.5 mg/kg/injection, schedule: Q01DX011 (ip), vehicle: steroid suspending solution, evaluated on day 45, higher T/C = longer survival): 127 % of control [7 of 8 alive]
T/C (T/C endpoint: median survival time, dose: 25.0 mg/kg/injection, schedule: Q01DX011 (ip), vehicle: steroid suspending solution, evaluated on day 39, higher T/C = longer survival): 142 % of control
T/C (T/C endpoint: median survival time, dose: 25.0 mg/kg/injection, schedule: Q01DX011 (ip), vehicle: steroid suspending solution, evaluated on day 57, higher T/C = longer survival): 101 and 129 % of control
survivor count (T/C endpoint: median survival time, dose: 25.0 mg/kg/injection, schedule: Q01DX011 (ip), vehicle: steroid suspending solution, higher T/C = longer survival): 6 of 8
survivor count (T/C endpoint: median survival time, dose: 25.0 mg/kg/injection, schedule: Q01DX017 (ip), vehicle: Klucel (hydroxypropylcellulose) (HPC), higher T/C = longer survival): 8 of 8
survivor count (T/C endpoint: median survival time, dose: 30.0 mg/kg/injection, schedule: Q01DX011 (ip), vehicle: carboxymethylcellulose (CMC), higher T/C = longer survival): 10 of 10
T/C (T/C endpoint: median survival time, dose: 50.0 mg/kg/injection, schedule: Q01DX011 (ip), vehicle: steroid suspending solution, evaluated on day 39, higher T/C = longer survival): 135 % of control
T/C (T/C endpoint: median survival time, dose: 50.0 mg/kg/injection, schedule: Q01DX011 (ip), vehicle: steroid suspending solution, evaluated on day 45, higher T/C = longer survival): 127 % of control [6 of 8 alive]
T/C (T/C endpoint: median survival time, dose: 50.0 mg/kg/injection, schedule: Q01DX011 (ip), vehicle: steroid suspending solution, evaluated on day 57, higher T/C = longer survival): 157 % of control
survivor count (T/C endpoint: median survival time, dose: 50.0 mg/kg/injection, schedule: Q01DX011 (ip), vehicle: steroid suspending solution, higher T/C = longer survival): 7 of 8
survivor count (T/C endpoint: median survival time, dose: 50.0 mg/kg/injection, schedule: Q01DX017 (ip), vehicle: Klucel (hydroxypropylcellulose) (HPC), higher T/C = longer survival): 4 of 8
T/C (T/C endpoint: median survival time, dose: 50.0 mg/kg/injection, schedule: Q04DX004 (ip), vehicle: Klucel (hydroxypropylcellulose) (HPC), evaluated on day 10, higher T/C = longer survival): 110 % of control
T/C (T/C endpoint: median survival time, dose: 50.0 mg/kg/injection, schedule: Q04DX004 (ip), vehicle: Klucel (hydroxypropylcellulose) (HPC), evaluated on day 13, higher T/C = longer survival): 100 % of control
T/C (T/C endpoint: median survival time, dose: 50.0 mg/kg/injection, schedule: Q04DX004 (ip), vehicle: Klucel (hydroxypropylcellulose) (HPC), evaluated on day 60, higher T/C = longer survival): 100 % of control [9 of 10 alive]
T/C (T/C endpoint: median survival time, dose: 50.0 mg/kg/injection, schedule: Q04DX004 (ip), vehicle: Klucel (hydroxypropylcellulose) (HPC), evaluated on day 62, higher T/C = longer survival): 110 % of control
survivor count (T/C endpoint: median survival time, dose: 60.0 mg/kg/injection, schedule: Q01DX011 (ip), vehicle: carboxymethylcellulose (CMC), higher T/C = longer survival): 5 of 10 and 9 of 10
survivor count (T/C endpoint: median survival time, dose: 100.0 mg/kg/injection, schedule: Q01DX009 (ip), vehicle: Klucel (hydroxypropylcellulose) (HPC), higher T/C = longer survival): 2 of 8
survivor count (T/C endpoint: median survival time, dose: 100.0 mg/kg/injection, schedule: Q01DX011 (ip), vehicle: Klucel (hydroxypropylcellulose) (HPC), higher T/C = longer survival): 0 of 8
survivor count (T/C endpoint: median survival time, dose: 100.0 mg/kg/injection, schedule: Q01DX011 (ip), vehicle: steroid suspending solution, higher T/C = longer survival): 1 of 8 and 2 of 8
survivor count (T/C endpoint: median survival time, dose: 100.0 mg/kg/injection, schedule: Q01DX017 (ip), vehicle: Klucel (hydroxypropylcellulose) (HPC), higher T/C = longer survival): 2 of 8
T/C (T/C endpoint: median survival time, dose: 100.0 mg/kg/injection, schedule: Q04DX004 (ip), vehicle: Klucel (hydroxypropylcellulose) (HPC), evaluated on day 10, higher T/C = longer survival): 128 % of control
T/C (T/C endpoint: median survival time, dose: 100.0 mg/kg/injection, schedule: Q04DX004 (ip), vehicle: Klucel (hydroxypropylcellulose) (HPC), evaluated on day 13, higher T/C = longer survival): 109 % of control
T/C (T/C endpoint: median survival time, dose: 100.0 mg/kg/injection, schedule: Q04DX004 (ip), vehicle: Klucel (hydroxypropylcellulose) (HPC), evaluated on day 60, higher T/C = longer survival): 109 % of control
T/C (T/C endpoint: median survival time, dose: 100.0 mg/kg/injection, schedule: Q04DX004 (ip), vehicle: Klucel (hydroxypropylcellulose) (HPC), evaluated on day 62, higher T/C = longer survival): 128 % of control
survivor count (T/C endpoint: median survival time, dose: 120.0 mg/kg/injection, schedule: Q01DX011 (ip), vehicle: carboxymethylcellulose (CMC), higher T/C = longer survival): 1 of 10 and 6 of 10
T/C (T/C endpoint: median survival time, dose: 200.0 mg/kg/injection, schedule: Q04DX004 (ip), vehicle: Klucel (hydroxypropylcellulose) (HPC), evaluated on day 10, higher T/C = longer survival): 126 % of control
T/C (T/C endpoint: median survival time, dose: 200.0 mg/kg/injection, schedule: Q04DX004 (ip), vehicle: Klucel (hydroxypropylcellulose) (HPC), evaluated on day 13, higher T/C = longer survival): 97 % of control
T/C (T/C endpoint: median survival time, dose: 200.0 mg/kg/injection, schedule: Q04DX004 (ip), vehicle: Klucel (hydroxypropylcellulose) (HPC), evaluated on day 60, higher T/C = longer survival): 97 % of control
T/C (T/C endpoint: median survival time, dose: 200.0 mg/kg/injection, schedule: Q04DX004 (ip), vehicle: Klucel (hydroxypropylcellulose) (HPC), evaluated on day 62, higher T/C = longer survival): 126 % of control
survivor count (T/C endpoint: median survival time, dose: 240.0 mg/kg/injection, schedule: Q01DX011 (ip), vehicle: carboxymethylcellulose (CMC), higher T/C = longer survival): 0 of 10 and 2 of 10
survivor count (T/C endpoint: median survival time, dose: 400.0 mg/kg/injection, schedule: Q01DX001 (ip), vehicle: steroid suspending solution, higher T/C = longer survival): 7 of 8
T/C [2]: 147 % of control
survivor count [2]: 5 of 8
T/C (T/C endpoint: median survival time, dose: 400.0 mg/kg/injection, schedule: Q04DX004 (ip), vehicle: Klucel (hydroxypropylcellulose) (HPC), evaluated on day 10, higher T/C = longer survival): 136 % of control
T/C (T/C endpoint: median survival time, dose: 400.0 mg/kg/injection, schedule: Q04DX004 (ip), vehicle: Klucel (hydroxypropylcellulose) (HPC), evaluated on day 13, higher T/C = longer survival): 100 % of control
T/C (T/C endpoint: median survival time, dose: 400.0 mg/kg/injection, schedule: Q04DX004 (ip), vehicle: Klucel (hydroxypropylcellulose) (HPC), evaluated on day 60, higher T/C = longer survival): 100 % of control [8 of 10 alive]
T/C (T/C endpoint: median survival time, dose: 400.0 mg/kg/injection, schedule: Q04DX004 (ip), vehicle: Klucel (hydroxypropylcellulose) (HPC), evaluated on day 62, higher T/C = longer survival): 136 % of control [9 of 10 alive]
survivor count (T/C endpoint: median survival time, dose: 400.0 mg/kg/injection, schedule: Q04DX005 (ip), vehicle: Klucel (hydroxypropylcellulose) (HPC), higher T/C = longer survival): 7 of 8
survivor count (T/C endpoint: median survival time, dose: 800.0 mg/kg/injection, schedule: Q04DX003 (ip), vehicle: Klucel (hydroxypropylcellulose) (HPC), higher T/C = longer survival): 0 of 8

From PubChem BioAssay AID272 (DTP/NCI, 2004)
